Patent US20010044449A1, “REMEDIES FOR DRUG ADDICTION” (priority 1997, published 2001)

Tested on: Sprague Dawley strain (SD strain) male rats
Test: Conditioned place preference (CPP) method, psychic dependence induced by morphine

CN1CC[C@]23c4c5ccc(O)c4O[C@H]2[C@@H](O)C=C[C@H]3[C@H]1C5 [morphine, reference compound]
Period rats remained in the box conditioned by the drug (morphine alone 3 mg/kg s.c. vs solvent control): significantly prolonged | Period rats remained in the box conditioned by the drug (morphine alone 5 mg/kg s.c.): significantly prolonged
